Source: publication PMC12832256
These are yes or no findings as the source states them, for the method shown. In cells and extracts the contact can be indirect. Some binding calls cover weakened binding; strength is not graded here.

Sequences of proteins named here, by UniProt entry; tags and fusion partners are left off.
UniProt P42684: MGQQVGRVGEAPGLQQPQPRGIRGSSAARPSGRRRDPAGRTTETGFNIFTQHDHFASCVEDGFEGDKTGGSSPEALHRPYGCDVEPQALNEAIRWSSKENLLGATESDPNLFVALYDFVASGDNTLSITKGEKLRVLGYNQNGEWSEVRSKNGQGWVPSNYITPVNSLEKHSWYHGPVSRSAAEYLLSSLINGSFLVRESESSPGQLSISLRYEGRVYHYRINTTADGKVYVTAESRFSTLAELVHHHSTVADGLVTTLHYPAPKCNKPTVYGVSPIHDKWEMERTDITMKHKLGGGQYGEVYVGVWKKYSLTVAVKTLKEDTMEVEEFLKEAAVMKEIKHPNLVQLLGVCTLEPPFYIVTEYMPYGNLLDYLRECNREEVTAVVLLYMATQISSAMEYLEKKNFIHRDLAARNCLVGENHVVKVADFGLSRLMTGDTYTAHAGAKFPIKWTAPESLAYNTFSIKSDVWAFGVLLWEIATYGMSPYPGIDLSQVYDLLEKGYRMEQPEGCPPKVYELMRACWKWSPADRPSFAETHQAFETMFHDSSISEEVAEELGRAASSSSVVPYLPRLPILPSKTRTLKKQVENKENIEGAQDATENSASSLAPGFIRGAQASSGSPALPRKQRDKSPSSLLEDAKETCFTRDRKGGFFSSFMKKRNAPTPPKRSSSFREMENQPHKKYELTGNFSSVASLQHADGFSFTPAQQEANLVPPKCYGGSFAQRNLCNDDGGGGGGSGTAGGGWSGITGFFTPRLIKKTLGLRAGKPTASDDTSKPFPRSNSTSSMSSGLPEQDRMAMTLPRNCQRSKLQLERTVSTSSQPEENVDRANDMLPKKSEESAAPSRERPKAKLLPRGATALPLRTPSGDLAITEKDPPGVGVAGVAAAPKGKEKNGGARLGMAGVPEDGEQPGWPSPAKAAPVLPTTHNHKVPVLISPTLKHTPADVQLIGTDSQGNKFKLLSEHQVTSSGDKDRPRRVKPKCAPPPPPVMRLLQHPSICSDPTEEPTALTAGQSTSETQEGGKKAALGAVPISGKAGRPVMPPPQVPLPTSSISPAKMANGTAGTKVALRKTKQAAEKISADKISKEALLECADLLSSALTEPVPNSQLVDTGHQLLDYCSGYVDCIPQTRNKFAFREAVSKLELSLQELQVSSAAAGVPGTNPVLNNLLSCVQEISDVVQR
UniProt Q14247: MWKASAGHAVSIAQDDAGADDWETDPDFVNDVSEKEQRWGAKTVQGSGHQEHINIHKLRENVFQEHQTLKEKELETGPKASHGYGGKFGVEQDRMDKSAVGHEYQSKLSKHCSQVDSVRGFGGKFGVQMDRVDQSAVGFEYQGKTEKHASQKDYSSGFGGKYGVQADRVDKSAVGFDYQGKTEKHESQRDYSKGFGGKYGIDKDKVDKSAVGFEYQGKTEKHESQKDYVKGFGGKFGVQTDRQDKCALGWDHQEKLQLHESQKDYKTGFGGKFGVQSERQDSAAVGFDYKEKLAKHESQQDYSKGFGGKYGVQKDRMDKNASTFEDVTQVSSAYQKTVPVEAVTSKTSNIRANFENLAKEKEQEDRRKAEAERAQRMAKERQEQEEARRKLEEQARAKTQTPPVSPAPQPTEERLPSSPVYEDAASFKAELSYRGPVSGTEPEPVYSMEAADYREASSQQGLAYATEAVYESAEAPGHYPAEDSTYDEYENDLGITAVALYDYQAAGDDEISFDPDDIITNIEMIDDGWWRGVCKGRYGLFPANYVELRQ

Target: ABL proto-oncogene 2, non-receptor tyrosine kinase (ABL2) (human (endogenous in SK-N-Be2 and SK-N-AS)) (UniProt P42684)
Assay: co-IP; lysates of SK-N-Be2 and SK-N-AS cells with or without DANCR overexpression; antibody (anti-ABL2 or anti-cortactin, 1:50) with protein A/G dynabeads; western blot

- binding: binds
Substance: cortactin (from UniProt Q14247 1-550)
